# Experimental data as given in the supplement of paper PMC10060354, “Discovery of a small molecule ligand of FRS2 that inhibits invasion and tumor growth” (Cellular Oncology, 2022).
# Chains of the proteins cited; added tags and fusions are not shown. Lines headed by an entry give the natural chain unless they say otherwise; changes in a name come on top.
# UniProt Q86VP1, whole entry: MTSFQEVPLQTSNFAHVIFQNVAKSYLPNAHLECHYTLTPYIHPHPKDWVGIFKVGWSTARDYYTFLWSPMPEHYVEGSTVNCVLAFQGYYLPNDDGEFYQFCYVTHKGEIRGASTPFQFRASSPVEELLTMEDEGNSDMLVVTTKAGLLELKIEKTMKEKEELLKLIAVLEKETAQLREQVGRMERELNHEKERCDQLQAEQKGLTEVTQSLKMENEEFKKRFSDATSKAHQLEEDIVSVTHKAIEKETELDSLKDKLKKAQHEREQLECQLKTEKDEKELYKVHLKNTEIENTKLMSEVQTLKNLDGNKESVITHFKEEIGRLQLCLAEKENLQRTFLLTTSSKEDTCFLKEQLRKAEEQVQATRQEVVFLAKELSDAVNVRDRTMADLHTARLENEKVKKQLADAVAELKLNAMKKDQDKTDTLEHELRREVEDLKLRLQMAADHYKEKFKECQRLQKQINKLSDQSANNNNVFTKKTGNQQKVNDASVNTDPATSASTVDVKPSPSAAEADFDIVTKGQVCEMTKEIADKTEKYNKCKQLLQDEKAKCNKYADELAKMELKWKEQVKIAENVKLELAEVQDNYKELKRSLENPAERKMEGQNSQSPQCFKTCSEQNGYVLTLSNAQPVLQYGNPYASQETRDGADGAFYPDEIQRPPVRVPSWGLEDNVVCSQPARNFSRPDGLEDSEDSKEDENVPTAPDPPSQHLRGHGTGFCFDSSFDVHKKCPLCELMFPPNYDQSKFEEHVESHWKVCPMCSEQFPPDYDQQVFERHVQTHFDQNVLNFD
# UniProt P52758: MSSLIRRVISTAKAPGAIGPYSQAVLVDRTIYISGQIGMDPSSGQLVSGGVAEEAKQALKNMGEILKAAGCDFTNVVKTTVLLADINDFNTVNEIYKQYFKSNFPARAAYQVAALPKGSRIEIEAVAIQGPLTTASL
# UniProt Q9ULW3: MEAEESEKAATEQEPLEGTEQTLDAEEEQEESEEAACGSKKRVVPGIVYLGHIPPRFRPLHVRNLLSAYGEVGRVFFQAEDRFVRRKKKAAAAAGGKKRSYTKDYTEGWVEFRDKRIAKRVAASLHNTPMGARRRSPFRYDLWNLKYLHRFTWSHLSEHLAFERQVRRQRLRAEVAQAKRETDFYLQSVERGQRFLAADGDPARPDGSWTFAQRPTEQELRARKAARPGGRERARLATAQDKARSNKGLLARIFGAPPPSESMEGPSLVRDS
# UniProt Q9ULM3: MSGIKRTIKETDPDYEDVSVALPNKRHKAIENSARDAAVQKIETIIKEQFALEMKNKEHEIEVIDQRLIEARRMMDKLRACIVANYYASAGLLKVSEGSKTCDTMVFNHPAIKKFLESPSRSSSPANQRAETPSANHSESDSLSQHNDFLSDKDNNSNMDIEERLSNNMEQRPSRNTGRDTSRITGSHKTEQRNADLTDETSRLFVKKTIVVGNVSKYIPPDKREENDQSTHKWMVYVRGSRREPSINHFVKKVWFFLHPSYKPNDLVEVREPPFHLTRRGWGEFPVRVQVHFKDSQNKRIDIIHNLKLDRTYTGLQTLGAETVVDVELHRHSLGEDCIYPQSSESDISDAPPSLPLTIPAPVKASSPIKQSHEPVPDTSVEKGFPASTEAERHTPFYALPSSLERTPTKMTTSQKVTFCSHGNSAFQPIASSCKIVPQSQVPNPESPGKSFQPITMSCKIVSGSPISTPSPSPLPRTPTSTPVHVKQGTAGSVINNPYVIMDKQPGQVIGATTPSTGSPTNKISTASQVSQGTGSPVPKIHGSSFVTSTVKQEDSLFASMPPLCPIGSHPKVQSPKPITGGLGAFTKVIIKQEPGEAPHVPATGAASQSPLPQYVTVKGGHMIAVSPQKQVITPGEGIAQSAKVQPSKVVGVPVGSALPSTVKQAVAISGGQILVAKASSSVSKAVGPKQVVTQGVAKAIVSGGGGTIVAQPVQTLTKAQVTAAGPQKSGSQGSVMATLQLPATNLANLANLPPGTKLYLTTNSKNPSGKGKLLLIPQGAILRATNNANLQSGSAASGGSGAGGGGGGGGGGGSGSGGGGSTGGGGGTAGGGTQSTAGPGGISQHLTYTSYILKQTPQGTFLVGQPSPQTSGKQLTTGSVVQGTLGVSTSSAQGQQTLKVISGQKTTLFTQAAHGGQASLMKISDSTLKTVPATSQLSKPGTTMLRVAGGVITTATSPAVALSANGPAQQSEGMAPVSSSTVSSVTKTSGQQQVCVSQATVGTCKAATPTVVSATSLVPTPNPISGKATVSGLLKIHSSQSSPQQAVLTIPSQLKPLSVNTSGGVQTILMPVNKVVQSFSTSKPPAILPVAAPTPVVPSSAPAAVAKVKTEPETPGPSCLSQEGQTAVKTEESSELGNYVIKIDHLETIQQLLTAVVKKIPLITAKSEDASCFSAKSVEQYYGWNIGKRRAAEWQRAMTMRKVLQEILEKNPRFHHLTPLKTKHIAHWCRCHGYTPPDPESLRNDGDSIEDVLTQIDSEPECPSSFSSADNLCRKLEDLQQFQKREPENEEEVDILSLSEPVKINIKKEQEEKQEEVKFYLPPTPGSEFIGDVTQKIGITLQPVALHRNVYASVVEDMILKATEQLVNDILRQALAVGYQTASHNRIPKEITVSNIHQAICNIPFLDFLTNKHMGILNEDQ
# UniProt Q96A49: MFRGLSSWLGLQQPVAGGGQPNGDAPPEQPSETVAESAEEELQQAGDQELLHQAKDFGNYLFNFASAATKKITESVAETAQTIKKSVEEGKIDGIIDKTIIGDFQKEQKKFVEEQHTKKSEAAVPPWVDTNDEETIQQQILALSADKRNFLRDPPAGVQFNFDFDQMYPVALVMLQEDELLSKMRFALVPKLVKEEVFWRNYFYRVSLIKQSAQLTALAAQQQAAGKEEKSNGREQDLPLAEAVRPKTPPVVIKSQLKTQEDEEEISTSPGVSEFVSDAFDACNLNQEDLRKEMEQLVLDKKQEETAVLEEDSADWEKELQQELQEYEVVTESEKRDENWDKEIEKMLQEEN
# UniProt P30530, whole entry: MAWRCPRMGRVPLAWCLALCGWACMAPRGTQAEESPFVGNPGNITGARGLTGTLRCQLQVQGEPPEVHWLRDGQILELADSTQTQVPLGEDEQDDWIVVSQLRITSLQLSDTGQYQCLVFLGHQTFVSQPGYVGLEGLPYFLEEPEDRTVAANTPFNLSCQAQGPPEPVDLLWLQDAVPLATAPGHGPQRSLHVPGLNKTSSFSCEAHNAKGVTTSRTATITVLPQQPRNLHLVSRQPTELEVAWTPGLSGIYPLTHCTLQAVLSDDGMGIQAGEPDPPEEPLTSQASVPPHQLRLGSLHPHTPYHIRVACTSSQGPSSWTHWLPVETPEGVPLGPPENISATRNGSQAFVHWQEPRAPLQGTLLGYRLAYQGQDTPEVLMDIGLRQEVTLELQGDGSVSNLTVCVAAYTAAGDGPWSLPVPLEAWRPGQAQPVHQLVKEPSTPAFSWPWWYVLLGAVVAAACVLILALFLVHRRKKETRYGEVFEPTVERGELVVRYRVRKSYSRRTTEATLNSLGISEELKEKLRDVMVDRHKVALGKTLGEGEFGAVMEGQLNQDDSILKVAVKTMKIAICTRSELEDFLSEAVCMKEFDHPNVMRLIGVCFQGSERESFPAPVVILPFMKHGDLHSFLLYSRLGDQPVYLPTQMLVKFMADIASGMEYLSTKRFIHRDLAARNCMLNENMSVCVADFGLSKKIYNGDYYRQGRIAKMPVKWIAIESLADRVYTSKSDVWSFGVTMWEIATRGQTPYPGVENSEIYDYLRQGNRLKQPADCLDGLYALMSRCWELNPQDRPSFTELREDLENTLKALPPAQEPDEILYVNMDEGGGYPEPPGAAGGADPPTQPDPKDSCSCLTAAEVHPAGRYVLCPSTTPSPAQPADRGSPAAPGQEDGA
# UniProt Q12904: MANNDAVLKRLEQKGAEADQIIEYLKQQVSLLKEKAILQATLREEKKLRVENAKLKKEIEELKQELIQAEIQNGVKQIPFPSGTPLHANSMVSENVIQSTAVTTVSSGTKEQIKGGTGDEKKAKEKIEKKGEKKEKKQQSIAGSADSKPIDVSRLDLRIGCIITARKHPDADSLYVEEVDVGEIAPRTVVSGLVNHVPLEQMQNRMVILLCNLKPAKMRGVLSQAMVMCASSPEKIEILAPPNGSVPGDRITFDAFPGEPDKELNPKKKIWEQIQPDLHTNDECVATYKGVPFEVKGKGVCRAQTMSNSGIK
# UniProt Q9UJA5: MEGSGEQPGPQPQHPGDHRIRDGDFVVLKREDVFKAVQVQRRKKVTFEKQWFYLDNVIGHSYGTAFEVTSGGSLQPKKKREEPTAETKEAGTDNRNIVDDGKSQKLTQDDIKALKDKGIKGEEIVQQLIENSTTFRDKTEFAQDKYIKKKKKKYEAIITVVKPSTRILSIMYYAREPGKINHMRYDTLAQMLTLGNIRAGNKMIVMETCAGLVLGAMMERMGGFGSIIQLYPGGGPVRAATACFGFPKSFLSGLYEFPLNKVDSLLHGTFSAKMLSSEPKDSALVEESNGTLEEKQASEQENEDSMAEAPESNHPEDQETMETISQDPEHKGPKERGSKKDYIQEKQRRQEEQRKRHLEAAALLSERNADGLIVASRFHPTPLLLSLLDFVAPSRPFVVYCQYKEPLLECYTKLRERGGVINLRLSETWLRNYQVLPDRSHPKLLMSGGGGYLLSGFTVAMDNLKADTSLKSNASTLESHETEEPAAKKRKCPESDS
# UniProt A6NIZ1: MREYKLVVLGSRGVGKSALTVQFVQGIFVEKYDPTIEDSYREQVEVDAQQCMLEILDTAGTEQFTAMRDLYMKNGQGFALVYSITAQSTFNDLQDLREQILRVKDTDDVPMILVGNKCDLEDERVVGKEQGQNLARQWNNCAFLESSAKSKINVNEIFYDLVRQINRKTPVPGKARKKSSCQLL
# UniProt P08183, whole entry, looked up: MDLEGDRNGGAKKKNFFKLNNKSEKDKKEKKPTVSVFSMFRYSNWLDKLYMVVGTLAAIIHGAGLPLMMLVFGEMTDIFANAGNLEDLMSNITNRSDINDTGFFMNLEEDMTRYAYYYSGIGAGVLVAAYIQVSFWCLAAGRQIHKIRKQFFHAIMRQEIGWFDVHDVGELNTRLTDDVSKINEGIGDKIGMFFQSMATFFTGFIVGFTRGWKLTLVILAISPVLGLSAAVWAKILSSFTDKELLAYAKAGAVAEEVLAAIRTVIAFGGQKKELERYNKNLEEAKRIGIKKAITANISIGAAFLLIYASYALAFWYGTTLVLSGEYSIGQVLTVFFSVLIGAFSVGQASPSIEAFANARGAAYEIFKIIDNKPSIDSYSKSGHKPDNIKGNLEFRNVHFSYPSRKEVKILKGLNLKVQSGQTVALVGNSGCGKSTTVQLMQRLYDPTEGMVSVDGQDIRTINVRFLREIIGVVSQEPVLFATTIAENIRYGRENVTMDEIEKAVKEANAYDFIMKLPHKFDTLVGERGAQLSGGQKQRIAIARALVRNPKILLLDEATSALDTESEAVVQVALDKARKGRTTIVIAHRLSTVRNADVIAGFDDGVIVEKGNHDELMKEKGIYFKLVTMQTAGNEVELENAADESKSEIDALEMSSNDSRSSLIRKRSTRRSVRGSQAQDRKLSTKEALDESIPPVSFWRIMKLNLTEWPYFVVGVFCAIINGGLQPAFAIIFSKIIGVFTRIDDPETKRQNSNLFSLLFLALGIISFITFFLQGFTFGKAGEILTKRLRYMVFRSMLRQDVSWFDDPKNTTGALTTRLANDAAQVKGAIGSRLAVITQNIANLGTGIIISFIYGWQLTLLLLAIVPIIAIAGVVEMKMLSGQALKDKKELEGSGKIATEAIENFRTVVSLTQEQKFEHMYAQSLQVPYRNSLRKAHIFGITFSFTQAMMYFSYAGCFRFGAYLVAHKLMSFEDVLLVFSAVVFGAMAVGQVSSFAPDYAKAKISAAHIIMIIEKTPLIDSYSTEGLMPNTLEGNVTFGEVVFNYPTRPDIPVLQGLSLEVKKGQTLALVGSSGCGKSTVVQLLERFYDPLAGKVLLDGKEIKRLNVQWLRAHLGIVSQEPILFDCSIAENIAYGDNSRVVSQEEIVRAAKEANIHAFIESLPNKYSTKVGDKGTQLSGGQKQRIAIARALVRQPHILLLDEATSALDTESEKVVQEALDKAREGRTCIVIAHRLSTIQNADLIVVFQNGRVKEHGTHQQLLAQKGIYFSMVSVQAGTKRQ
# UniProt P42575: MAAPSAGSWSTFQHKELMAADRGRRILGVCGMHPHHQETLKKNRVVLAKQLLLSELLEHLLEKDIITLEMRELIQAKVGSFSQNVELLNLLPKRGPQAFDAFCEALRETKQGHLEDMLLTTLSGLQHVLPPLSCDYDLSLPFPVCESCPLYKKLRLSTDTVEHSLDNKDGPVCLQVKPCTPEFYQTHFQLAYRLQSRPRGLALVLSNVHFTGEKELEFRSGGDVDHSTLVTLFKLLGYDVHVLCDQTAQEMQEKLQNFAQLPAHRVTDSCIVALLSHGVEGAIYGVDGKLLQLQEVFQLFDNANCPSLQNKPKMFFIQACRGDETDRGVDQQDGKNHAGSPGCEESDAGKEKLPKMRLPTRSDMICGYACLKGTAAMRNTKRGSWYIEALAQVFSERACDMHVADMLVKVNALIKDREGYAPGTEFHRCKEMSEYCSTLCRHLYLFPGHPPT
# Many values rest on one well or one pass, so single values are uncertain.
# Compound: [O-][N+](C(C1=C(C(O)=C2)NC(C(C=C3)=CC=C3Cl)C4C1C=CC4)=C2Cl)=O
# Assay: melting temperature shift (compound 7 minus DMSO); higher = compound stabilises the protein
# Details: 10 µM
# Method: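 Thermal proteome profiling (TMT mass spectrometry) in intact DAOY medulloblastoma cells or DAOY lysates treated with 10 µM compound 7 or DMSO, heated at 10 temperatures from 40.5 to 73.8 °C for 3 min. Melting curves were fitted with the Bioconductor TPP package, and the melting point difference between compound and vehicle is reported per protein (single curve per condition).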
# [1] = system: DAOY cell lysate, treatment time: 20 min, 4 °C
# [2] = system: intact DAOY cells, treatment time: 90 min, 37 °C
Target,melting temperature shift [1],melting temperature shift [2]
SLU7 (UniProt O95391),1.54 °C,
LCLAT1 (UniProt Q6UWP7),1.12 °C,-1.09 °C
ADD1 (UniProt P35611),0.527 °C,0.104 °C
MIPEP (UniProt Q99797),1.17 °C,-0.493 °C
UBR2 (UniProt Q8IWV8),-1.42 °C,1.2 °C
VLDLR (UniProt P98155),-1.13 °C,
UniProt Q9Y5U4,2.68 °C,
TNS1 (UniProt Q9HBL0),2.24 °C,
UniProt P46821,-0.748 °C,0.237 °C
TOMM20 (UniProt Q15388),1.76 °C,0.947 °C
UniProt Q9BRK4,,0.0845 °C
UniProt Q92764,,1.5 °C
UniProt O76001,1.06 °C,0.22 °C
UniProt P07947,1.94 °C,0.599 °C
EIF3A (UniProt Q14152),-0.535 °C,-0.0908 °C
TTI1 (UniProt O43156),-1.74 °C,-0.25 °C
STRN4 (UniProt Q9NRL3),-1.07 °C,0.189 °C
XRCC4 (UniProt Q13426),-0.386 °C,1.22 °C
NDRG1 (UniProt Q92597),0.234 °C,-0.645 °C
TAX1BP1 (UniProt Q86VP1),-0.77 °C,0.773 °C
UniProt O60260,,0.414 °C
HSPA4 (UniProt P34932),-0.16 °C,0.542 °C
PRKAR1B (UniProt P31321),-1.74 °C,0.0264 °C
UniProt Q9Y3M8,1.69 °C,

# Given with bars between the fields: part of the list above
Target | melting temperature shift [1] | melting temperature shift [2]
UniProt Q9BRK4 |  | 0.0845 °C
XRCC4 (UniProt Q13426) | -0.386 °C | 1.22 °C
HSPA4 (UniProt P34932) | -0.16 °C | 0.542 °C

# The list continues:

Target,melting temperature shift [1],melting temperature shift [2]
RAB8B (UniProt Q92930),0.737 °C,1.19 °C
UniProt Q8IWN7,,-1.08 °C
SCO1 (UniProt O75880),0.364 °C,-0.828 °C
RAB24 (UniProt Q969Q5),0.935 °C,-0.883 °C
HAUS4 (UniProt Q9H6D7),1.08 °C,
NT5DC2 (UniProt Q9H857),1.34 °C,-0.161 °C
GLRX3 (UniProt O76003),-0.203 °C,0.158 °C
FAM96B (UniProt Q9Y3D0),-0.0478 °C,-0.126 °C
SF1 (UniProt Q15637),-1.22 °C,-0.798 °C
ZC2HC1A (UniProt Q96GY0),0.216 °C,-1.73 °C
UniProt Q8N3K9,-0.835 °C,
ALAS1 (UniProt P13196),,-0.739 °C
JAK1 (UniProt P23458),0.472 °C,
CAMK2A (UniProt Q9UQM7),,-0.273 °C
HRSP12 (UniProt P52758),-0.688 °C,0.704 °C
OSBPL1A (UniProt Q9BXW6),0.146 °C,-1.96 °C
HSPA14 (UniProt Q0VDF9),-0.929 °C,-0.957 °C
MED18 (UniProt Q9BUE0),-1 °C,1.73 °C
UniProt Q05D32,-1.57 °C,-0.297 °C
UniProt Q9Y5Z7,,-1.55 °C
UniProt Q86V88,-1.1 °C,0.0507 °C
UniProt Q14141,-0.167 °C,-0.263 °C
GCN1 (UniProt Q92616),-1.07 °C,-0.0159 °C
RBPJ (UniProt Q06330),2.7 °C,0.168 °C

Target,melting temperature shift [1],melting temperature shift [2]
TCEA1 (UniProt P23193),-1.04 °C,-0.166 °C
UniProt P17540,,1.91 °C
NCOA3 (UniProt Q9Y6Q9),-1.09 °C,
RBM6 (UniProt P78332),1.48 °C,-0.369 °C
SNX27 (UniProt Q96L92),-0.0615 °C,-0.0854 °C
MFN1 (UniProt Q8IWA4),1.21 °C,0.504 °C
UniProt Q9BTM9,1.31 °C,-1.6 °C
UniProt O75509,-0.547 °C,
UniProt Q75LS8,,-0.155 °C
FAM32A (UniProt Q9Y421),1.04 °C,
RBM26 (UniProt Q5T8P6),-1.23 °C,-1.04 °C
PGRMC2 (UniProt O15173),1.75 °C,
UniProt Q96EN9,-2.17 °C,
SLC20A1 (UniProt Q8WUM9),6 °C,
BRE (UniProt Q9NXR7),-1.94 °C,-0.31 °C
UniProt Q5VWN6,-1.81 °C,
UniProt Q9ULW3,0.0255 °C,
DDI2 (UniProt Q5TDH0),-0.755 °C,-0.712 °C
UniProt Q9Y247,,-1.26 °C
UniProt Q8NGA1,-0.941 °C,
UniProt Q9ULM3,-0.688 °C,0.471 °C
UniProt Q9P003,0.222 °C,-0.0849 °C
UniProt P36959,,0.547 °C
MRPS2 (UniProt Q9Y399),-0.128 °C,0.0265 °C

Target,melting temperature shift [1],melting temperature shift [2]
FKBP4 (UniProt Q02790),-0.339 °C,-0.326 °C
SYAP1 (UniProt Q96A49),0.603 °C,-0.535 °C
TRMT11 (UniProt Q7Z4G4),-0.125 °C,-1.54 °C
UFSP2 (UniProt Q9NUQ7),0.865 °C,0.0386 °C
UniProt P17900,-0.911 °C,
SCAMP2 (UniProt O15127),0.828 °C,6.37 °C
UniProt P62304,0.304 °C,1 °C
DST (UniProt Q03001),-0.68 °C,0.242 °C
STX18 (UniProt Q9P2W9),1.08 °C,-1.1 °C
CTNNB1 (UniProt P35222),0.905 °C,-0.0653 °C
PEX5 (UniProt P50542),7.94 °C,
MTIF3 (UniProt Q9H2K0),1.74 °C,
PHKA1 (UniProt P46020),-0.385 °C,-0.367 °C
ZCRB1 (UniProt Q8TBF4),0.943 °C,-0.893 °C
PLAUR (UniProt Q03405),,2.71 °C
UniProt Q9Y3C7,-0.982 °C,
NBAS (UniProt A2RRP1),1.37 °C,-1.22 °C
PGAM5 (UniProt Q96HS1),1.18 °C,-0.377 °C
TUBB2A (UniProt Q13885),-0.351 °C,-0.714 °C
SAR1A (UniProt Q9NR31),0.251 °C,-0.283 °C
VTI1A (UniProt Q96AJ9),-2.71 °C,
GGPS1 (UniProt O95749),-0.762 °C,1.55 °C
CHML (UniProt P26374),-0.759 °C,0.872 °C
CAMKMT (UniProt Q7Z624),-0.0348 °C,

Target,melting temperature shift [1],melting temperature shift [2]
PSMB3 (UniProt P49720),,-1.15 °C
AXL (UniProt P30530),0.302 °C,-0.661 °C
AIMP1 (UniProt Q12904),-0.755 °C,-0.647 °C
TSTD2 (UniProt Q5T7W7),-0.704 °C,
C19ORF53 (UniProt Q9UNZ5),1.08 °C,-0.444 °C
TRMT6 (UniProt Q9UJA5),-0.032 °C,-0.0768 °C
UniProt A6NIZ1,,-1.29 °C
TARBP1 (UniProt Q13395),-0.0842 °C,-0.24 °C
UniProt Q8TDZ2,0.545 °C,-0.357 °C
PDLIM5 (UniProt Q96HC4),-0.664 °C,-0.0418 °C
UniProt Q9NYM9,1.03 °C,0.299 °C
POLR3C (UniProt Q9BUI4),-0.749 °C,-0.419 °C
ABCB1 (UniProt P08183),1.97 °C,
EXOSC9 (UniProt Q06265),2.09 °C,
UniProt Q96FL9,0.858 °C,
MRM1 (UniProt Q6IN84),0.737 °C,
UniProt O00522,-1.23 °C,
CASP2 (UniProt P42575),0.244 °C,
UniProt Q16799,2.37 °C,
PLIN2 (UniProt Q99541),1.25 °C,1.67 °C
SGPP1 (UniProt Q9BX95),2.13 °C,-2.39 °C
HIF1AN (UniProt Q9NWT6),-1.09 °C,0.455 °C
